Reference: publication PMC11765556, “Cytosine Methylation Changes the Preferred Cis-Regulatory Configuration of Arabidopsis WUSCHEL-Related Homeobox 14”
A negative result means that nothing was seen under these conditions. Tags and fusion partners may be left off the protein sequences shown.

Target: T1, AtWOX14 (homodimer on DNA) (Arabidopsis thaliana) (UniProt Q9LM84)
T1 sequence (looked up): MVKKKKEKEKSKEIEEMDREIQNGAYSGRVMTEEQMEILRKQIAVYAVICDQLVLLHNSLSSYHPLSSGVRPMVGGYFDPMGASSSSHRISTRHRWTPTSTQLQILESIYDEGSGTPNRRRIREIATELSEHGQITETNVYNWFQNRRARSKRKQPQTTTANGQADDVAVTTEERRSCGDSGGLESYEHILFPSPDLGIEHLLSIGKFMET
Experiment: EMSA
Details: 50-200 nM WOX14, no dimeric shift; EMSA: 10 mM Tris (pH not stated), 50 mM NaCl, 1 mM MgCl2, 4% glycerol, 0.5 mM EDTA, 25 C 40 min, 30 ng probe in 20 uL; 6% native PAGE, 0.5x TBE, 4 C; recombinant protein; residues 1-211; protein details: N-terminal His (pETG20A-His)

ATGCTAGCTCCATCTGTATTGATTGTTTATGGCGGTGACGTACT (double strand) [M1]
binding result: no binding
